Assay results as given in paper doi:10.1101/2020.02.20.957688.
No constants are given. Whether binding was seen depends on the method and setting. In cells and extracts the contact can be indirect. Some results given as binding are weak or reduced against the parent protein; the word gives no strength. Sequences can lack the tags named with a protein.

Amino acid sequences for entries named in this document (tags omitted). A change or cut given only in a name is not applied to a line headed by its entry. Chains listed by the source or under a name are the forms on record and can include a tag or linker.
UniProt Q16665: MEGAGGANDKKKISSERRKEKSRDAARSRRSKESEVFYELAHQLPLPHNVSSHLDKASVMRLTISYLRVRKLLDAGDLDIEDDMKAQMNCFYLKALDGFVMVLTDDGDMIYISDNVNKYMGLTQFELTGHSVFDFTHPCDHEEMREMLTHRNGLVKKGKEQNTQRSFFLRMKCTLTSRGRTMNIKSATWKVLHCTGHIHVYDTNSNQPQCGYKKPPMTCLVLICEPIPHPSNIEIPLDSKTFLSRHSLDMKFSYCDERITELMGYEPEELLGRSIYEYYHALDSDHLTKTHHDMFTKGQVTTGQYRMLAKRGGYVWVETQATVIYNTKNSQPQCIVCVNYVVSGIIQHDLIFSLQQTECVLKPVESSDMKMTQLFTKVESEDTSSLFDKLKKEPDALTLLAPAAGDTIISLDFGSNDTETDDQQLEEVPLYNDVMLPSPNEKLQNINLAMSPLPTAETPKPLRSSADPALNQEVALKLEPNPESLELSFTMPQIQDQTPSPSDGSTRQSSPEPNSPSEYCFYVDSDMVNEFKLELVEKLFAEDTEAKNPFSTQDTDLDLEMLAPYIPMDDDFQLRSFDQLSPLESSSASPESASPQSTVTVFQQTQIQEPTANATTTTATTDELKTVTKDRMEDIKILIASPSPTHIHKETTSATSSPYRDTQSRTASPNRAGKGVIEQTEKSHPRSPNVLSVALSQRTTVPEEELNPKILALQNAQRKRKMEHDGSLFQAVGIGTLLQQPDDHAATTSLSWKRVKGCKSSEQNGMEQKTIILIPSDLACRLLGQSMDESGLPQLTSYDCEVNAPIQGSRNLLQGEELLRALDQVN
GFP-tagged HIF-1α DM^(PP/AA) (Q16665, form named): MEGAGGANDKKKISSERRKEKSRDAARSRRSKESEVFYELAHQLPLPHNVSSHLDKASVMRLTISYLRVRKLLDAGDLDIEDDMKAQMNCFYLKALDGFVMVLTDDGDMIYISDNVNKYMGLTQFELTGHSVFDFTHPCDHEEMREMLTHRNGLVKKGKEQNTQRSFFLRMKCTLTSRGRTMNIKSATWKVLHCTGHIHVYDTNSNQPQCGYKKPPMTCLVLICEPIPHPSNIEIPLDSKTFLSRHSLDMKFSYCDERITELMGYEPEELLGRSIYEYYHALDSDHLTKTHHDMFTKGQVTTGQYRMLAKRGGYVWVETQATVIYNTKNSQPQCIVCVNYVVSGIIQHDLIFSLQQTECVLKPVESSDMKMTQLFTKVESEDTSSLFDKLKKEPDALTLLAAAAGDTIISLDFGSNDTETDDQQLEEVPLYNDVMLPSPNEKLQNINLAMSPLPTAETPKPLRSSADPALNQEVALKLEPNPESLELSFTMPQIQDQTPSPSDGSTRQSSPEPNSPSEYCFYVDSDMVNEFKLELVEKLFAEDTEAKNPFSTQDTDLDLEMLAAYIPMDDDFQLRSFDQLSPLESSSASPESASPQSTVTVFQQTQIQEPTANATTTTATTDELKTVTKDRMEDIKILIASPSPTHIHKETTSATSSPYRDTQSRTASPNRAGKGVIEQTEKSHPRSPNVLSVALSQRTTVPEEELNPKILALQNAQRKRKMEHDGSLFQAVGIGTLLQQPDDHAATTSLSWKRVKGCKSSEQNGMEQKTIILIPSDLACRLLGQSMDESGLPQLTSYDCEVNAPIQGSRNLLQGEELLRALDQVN

Molecular target: GFP-tagged HIF-1α DM^(PP/AA) (UniProt Q16665)
Assay: co-IP

binding: binds
B1: HA-USP29 (enzyme, UniProt Q9HBJ7 1-922)
chain: MISLKVCGFIQIWSQKTGMTKLKEALIETVQRQKEIKLVVTFKSGKFIRIFQLSNNIRSVVLRHCKKRQSHLRLTLKNNVFLFIDKLSYRDAKQLNMFLDIIHQNKSQQPMKSDDDWSVFESRNMLKEIDKTSFYSICNKPSYQKMPLFMSKSPTHVKKGILENQGGKGQNTLSSDVQTNEDILKEDNPVPNKKYKTDSLKYIQSNRKNPSSLEDLEKDRDLKLGPSFNTNCNGNPNLDETVLATQTLNAKNGLTSPLEPEHSQGDPRCNKAQVPLDSHSQQLQQGFPNLGNTCYMNAVLQSLFAIPSFADDLLTQGVPWEYIPFEALIMTLTQLLALKDFCSTKIKRELLGNVKKVISAVAEIFSGNMQNDAHEFLGQCLDQLKEDMEKLNATLNTGKECGDENSSPQMHVGSAATKVFVCPVVANFEFELQLSLICKACGHAVLKVEPNNYLSINLHQETKPLPLSIQNSLDLFFKEEELEYNCQMCKQKSCVARHTFSRLSRVLIIHLKRYSFNNAWLLVKNNEQVYIPKSLSLSSYCNESTKPPLPLSSSAPVGKCEVLEVSQEMISEINSPLTPSMKLTSESSDSLVLPVEPDKNADLQRFQRDCGDASQEQHQRDLENGSALESELVHFRDRAIGEKELPVADSLMDQGDISLPVMYEDGGKLISSPDTRLVEVHLQEVPQHPELQKYEKTNTFVEFNFDSVTESTNGFYDCKENRIPEGSQGMAEQLQQCIEESIIDEFLQQAPPPGVRKLDAQEHTEETLNQSTELRLQKADLNHLGALGSDNPGNKNILDAENTRGEAKELTRNVKMGDPLQAYRLISVVSHIGSSPNSGHYISDVYDFQKQAWFTYNDLCVSEISETKMQEARLHSGYIFFYMHNGIFEELLRKAENSRLPSTQAGVIPQGEYEGDSLYRPA
